# Experimental data from the supplement of paper PMC12009310.
# Counter-ions that a name gives are not always drawn. ± gives the standard deviation of the averaged measurements. The list shows a part of the results. Part of the spread comes from offsets between plates or batches.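 The cells are a mouse kidney inner medullary collecting duct line, silenced either for the ciliary gene Rpgrip1l or with a non-targeting control siRNA.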
# Columns and labels:
# [1] = system: mIMCD3; experiment: robust z score of cell number vs plate controls; higher = more cells (less cytotoxic); settings: 10 µM, 48 h
# [2] = system: mIMCD3; experiment: robust z score of cilia incidence (% cells with single cilium) vs plate controls; higher = more ciliated cells; settings: 10 µM; 48 h; siRNA: siScr
# [3] = system: mIMCD3; experiment: robust z score of cilia incidence (% cells with single cilium) vs plate controls; higher = more ciliated cells (rescue of cilia loss); settings: 10 µM; 48 h; siRNA: siRpgrip1l
smiles,measurement,setting,value
CCCN[C@@H]1CCc2c(OC)cccc2[C@@H]1C [(+)-AJ 76 hydrochloride],robust z score of cell number,[1]; siRNA: siRpgrip1l,0.185 ± 4
same,robust z score of cell number,[1]; siRNA: siScr,-7.68 ± 4.6
same,robust z score of cilia incidence,[2],-2.76 ± 0.27
same,robust z score of cilia incidence,[3],-18 ± 2.8
Cc1cc(SCc2sc(-c3ccc(C(F)(F)F)c(F)c3)nc2C)ccc1OCC(=O)O,robust z score of cell number,[1]; siRNA: siRpgrip1l,-40.8 ± 27
same,robust z score of cell number,[1]; siRNA: siScr,-54.6 ± 29
same,robust z score of cilia incidence,[2],-15.3 ± 6.4
same,robust z score of cilia incidence,[3],-40.5 ± 26
CN(C)CCN(C)CCc1ccc(Cl)c(Cl)c1 [BD 1047 dihydrobromide],robust z score of cell number,[1]; siRNA: siRpgrip1l,-29.79 ± 0.12
same,robust z score of cell number,[1]; siRNA: siScr,-29.4 ± 15
same,robust z score of cilia incidence,[2],-42.8 ± 8
same,robust z score of cilia incidence,[3],-28.8 ± 4.5
Fc1ccc(C(OCCN2CCN(C/C=C/c3ccccc3)CC2)c2ccc(F)cc2)cc1,robust z score of cell number,[1]; siRNA: siRpgrip1l,-125 ± 100
same,robust z score of cell number,[1]; siRNA: siScr,-83.4 ± 44
same,robust z score of cilia incidence,[2],-46.5 ± 2.1
same,robust z score of cilia incidence,[3],-47.8 ± 25
O=C(O)c1ccc2[nH]cc(CCCCN3CC=C(c4ccccc4)CC3)c2c1 [Carmoxirole hydrochloride],robust z score of cell number,[1]; siRNA: siRpgrip1l,-4.82 ± 5.9
same,robust z score of cell number,[1]; siRNA: siScr,-11.2 ± 14
same,robust z score of cilia incidence,[2],-6.93 ± 2.5
same,robust z score of cilia incidence,[3],-23 ± 18
O=C(Cc1ccc(Cl)c(Cl)c1)N1CCCCC1CN1CCCC1 (stereo not drawn),robust z score of cell number,[1]; siRNA: siRpgrip1l,-1.33 ± 1.6
same,robust z score of cell number,[1]; siRNA: siScr,-2.32 ± 1.8
same,robust z score of cilia incidence,[2],-2.99 ± 0.78
same,robust z score of cilia incidence,[3],-7.61 ± 3.1
NP(N)(=O)NC(=O)c1ccc(F)cc1 [Flurofamide],robust z score of cell number,[1]; siRNA: siRpgrip1l,-3.63 ± 2.1
same,robust z score of cell number,[1]; siRNA: siScr,-3.49 ± 7.2
same,robust z score of cilia incidence,[2],2.67 ± 1.5
same,robust z score of cilia incidence,[3],-8.26 ± 3.9
OC1CCCCC1N1CCC(c2ccccc2)CC1 (racemic) [(±)-Vesamicol hydrochloride],robust z score of cell number,[1]; siRNA: siRpgrip1l,-13.1 ± 8.8
same,robust z score of cell number,[1]; siRNA: siScr,-13.5 ± 15
same,robust z score of cilia incidence,[2],-3.14 ± 0.12
same,robust z score of cilia incidence,[3],-12.8 ± 5.2
"c1ccc(CC(c2ccccc2)N2CCCCC2)cc1 (racemic) [(±)-1-(1,2-Diphenylethyl)piperidine maleate]",robust z score of cell number,[1]; siRNA: siRpgrip1l,-9.39 ± 5.2
same,robust z score of cell number,[1]; siRNA: siScr,-15.7 ± 28
same,robust z score of cilia incidence,[2],-3.28 ± 4
same,robust z score of cilia incidence,[3],-20.3 ± 17
CCCN1CCO[C@@H]2c3cc(O)ccc3OC[C@H]21,robust z score of cell number,[1]; siRNA: siRpgrip1l,-33.6 ± 4.9
same,robust z score of cell number,[1]; siRNA: siScr,-2.21 ± 0.49
same,robust z score of cilia incidence,[2],4.62 ± 6.6
same,robust z score of cilia incidence,[3],-8.72 ± 1.6
O[C@H]1[C@H](O)[C@@H](O)CN2CC[C@H](O)[C@H]12 [Castanospermine],robust z score of cell number,[1]; siRNA: siRpgrip1l,-0.607 ± 0.94
same,robust z score of cell number,[1]; siRNA: siScr,3.97 ± 3.5
same,robust z score of cilia incidence,[2],5.66 ± 2.3
same,robust z score of cilia incidence,[3],-7.31 ± 4
CN(C(=O)Cc1ccccc1)C(CN1CCCC1)c1ccccc1 (stereo not drawn) [N-MPPP Hydrochloride],robust z score of cell number,[1]; siRNA: siRpgrip1l,-4.35 ± 2.7
same,robust z score of cell number,[1]; siRNA: siScr,-1.32 ± 3.6
same,robust z score of cilia incidence,[2],0.336 ± 0.67
same,robust z score of cilia incidence,[3],-5.71 ± 1.4
COc1cc(N)c(Cl)cc1C(=O)NC1CN2CCC1CC2 (stereo not drawn) [Zacopride hydrochloride],robust z score of cell number,[1]; siRNA: siRpgrip1l,-0.941 ± 0.75
same,robust z score of cell number,[1]; siRNA: siScr,0.854 ± 4
same,robust z score of cilia incidence,[2],-3.41 ± 1.2
same,robust z score of cilia incidence,[3],-16.2 ± 9.6
CCOC(=O)c1ncc2[nH]c3ccc(OCc4ccccc4)cc3c2c1COC,robust z score of cell number,[1]; siRNA: siRpgrip1l,-30.5 ± 27
same,robust z score of cell number,[1]; siRNA: siScr,-29.6 ± 18
same,robust z score of cilia incidence,[2],-38.7 ± 29
same,robust z score of cilia incidence,[3],-43 ± 25
CCCCC/C=C\C/C=C\C/C=C\C/C=C\CCCC(=O)Nc1ccc(O)cc1,robust z score of cell number,[1]; siRNA: siRpgrip1l,-18.2 ± 13
same,robust z score of cell number,[1]; siRNA: siScr,-5.24 ± 1
same,robust z score of cilia incidence,[2],-0.659 ± 0.57
same,robust z score of cilia incidence,[3],-17.7 ± 1.1
CCCN(CCC)[C@@H]1CCc2c(OC)cccc2[C@@H]1C [(+)-UH 232 maleate],robust z score of cell number,[1]; siRNA: siRpgrip1l,-0.0617 ± 3.7
same,robust z score of cell number,[1]; siRNA: siScr,5.52 ± 9.8
same,robust z score of cilia incidence,[2],-6.19 ± 5.2
same,robust z score of cilia incidence,[3],-9.64 ± 2.4
CCCOc1ccc2[nH]cc(C3=CCNCC3)c2n1,robust z score of cell number,[1]; siRNA: siRpgrip1l,-41.6 ± 40
same,robust z score of cell number,[1]; siRNA: siScr,0.75 ± 0.51
same,robust z score of cilia incidence,[2],-1.49 ± 2.6
same,robust z score of cilia incidence,[3],-7.26 ± 0.085
CCOC(=O)c1ncn2c1[C@@H]1CCCN1C(=O)c1cc(OC)ccc1-2,robust z score of cell number,[1]; siRNA: siRpgrip1l,-26.6 ± 17
same,robust z score of cell number,[1]; siRNA: siScr,-5.29 ± 3.7
same,robust z score of cilia incidence,[2],2.34 ± 6.7
same,robust z score of cilia incidence,[3],-8.84 ± 0.88
Oc1ccc2c3c1O[C@H]1c4oc5ccccc5c4C[C@@]4(O)[C@@H](C2)N(CC2CC2)CC[C@]314 [Naltriben mesylate],robust z score of cell number,[1]; siRNA: siRpgrip1l,-4.77 ± 2.8
same,robust z score of cell number,[1]; siRNA: siScr,-0.848 ± 1.7
same,robust z score of cilia incidence,[2],-2.74 ± 4.4
same,robust z score of cilia incidence,[3],-10.8 ± 7.6
"C=CCN1CC[C@]2(C)c3cc(O)ccc3C[C@H]1C2C (single isomer, unassigned; (+))",robust z score of cell number,[1]; siRNA: siRpgrip1l,-9.2 ± 6
same,robust z score of cell number,[1]; siRNA: siScr,-3.33 ± 1.6
same,robust z score of cilia incidence,[2],-3.28 ± 0.066
same,robust z score of cilia incidence,[3],-18.9 ± 3.2
C[C@@]12C(=O)OC(=O)[C@]1(C)[C@H]1CC[C@@H]2O1 [Cantharidin],robust z score of cell number,[1]; siRNA: siRpgrip1l,-192 ± 220
same,robust z score of cell number,[1]; siRNA: siScr,-45 ± 11
same,robust z score of cilia incidence,[2],-44.6 ± 17
same,robust z score of cilia incidence,[3],-545 ± 310
Cn1c2c(c3ccccc31)CCNCC2,robust z score of cell number,[1]; siRNA: siRpgrip1l,-0.17 ± 0.72
same,robust z score of cell number,[1]; siRNA: siScr,-2.06 ± 4.4
same,robust z score of cilia incidence,[2],1.25 ± 0.41
same,robust z score of cilia incidence,[3],-7.58 ± 5.2
CC(N)Cc1c[nH]c2ccc(O)cc12 (stereo not drawn) [α-Methyl-5-hydroxytryptamine maleate],robust z score of cell number,[1]; siRNA: siRpgrip1l,-10.5 ± 9.7
same,robust z score of cell number,[1]; siRNA: siScr,-2.82 ± 6.1
same,robust z score of cilia incidence,[2],0.802 ± 1.6
same,robust z score of cilia incidence,[3],-10.2 ± 1.9
COc1cc2c(cc1O)C(CCc1ccc(Cl)cc1)N(C)CC2 (stereo not drawn),robust z score of cell number,[1]; siRNA: siRpgrip1l,-20 ± 10
same,robust z score of cell number,[1]; siRNA: siScr,-33.5 ± 27
same,robust z score of cilia incidence,[2],-19.7 ± 1.8
same,robust z score of cilia incidence,[3],-48.9 ± 18
COc1ccc(C(=O)c2c(C)n(CCN3CCOCC3)c3cc(I)ccc23)cc1,robust z score of cell number,[1]; siRNA: siRpgrip1l,-50 ± 40
same,robust z score of cell number,[1]; siRNA: siScr,-20.1 ± 4.2
same,robust z score of cilia incidence,[2],-12.3 ± 0.58
same,robust z score of cilia incidence,[3],-26.2 ± 6.2
FC(F)(F)c1cccc(C2=CCN(CCc3ccc4ccccc4c3)CC2)c1 [Xaliproden hydrochloride],robust z score of cell number,[1]; siRNA: siRpgrip1l,-0.602 ± 3.6
same,robust z score of cell number,[1]; siRNA: siScr,-43.9 ± 52
same,robust z score of cilia incidence,[2],-15.6 ± 0.88
same,robust z score of cilia incidence,[3],-23.1 ± 5.6
C[C@H]1CCC/C=C/[C@@H]2C[C@H](O)C[C@H]2[C@H](O)/C=C/C(=O)O1 [Brefeldin A],robust z score of cell number,[1]; siRNA: siRpgrip1l,-307 ± 220
same,robust z score of cell number,[1]; siRNA: siScr,-40.5 ± 9.6
same,robust z score of cilia incidence,[2],-53.5 ± 8.1
same,robust z score of cilia incidence,[3],-29.2 ± 9.1
CN1c2ccccc2C(NCCCCCCC(=O)O)c2ccc(Cl)cc2S1(=O)=O (stereo not drawn) [Tianeptine],robust z score of cell number,[1]; siRNA: siRpgrip1l,-3.66 ± 0.6
same,robust z score of cell number,[1]; siRNA: siScr,1.13 ± 3.1
same,robust z score of cilia incidence,[2],8.28 ± 21
same,robust z score of cilia incidence,[3],-28.2 ± 22
Cc1nnc2n1-c1sc(CCC(=O)N3CCOCC3)cc1C(c1ccccc1Cl)=NC2,robust z score of cell number,[1]; siRNA: siRpgrip1l,-6.02 ± 2.9
same,robust z score of cell number,[1]; siRNA: siScr,-1.1 ± 2.4
same,robust z score of cilia incidence,[2],2.33 ± 0.24
same,robust z score of cilia incidence,[3],-10.1 ± 10
"Clc1ccc(N2CCN(Cc3c[nH]c4ncccc34)CC2)cc1 [L-745,870 trihydrochloride]",robust z score of cell number,[1]; siRNA: siRpgrip1l,-14.6 ± 0.55
same,robust z score of cell number,[1]; siRNA: siScr,-19 ± 12
same,robust z score of cilia incidence,[2],-26.2 ± 7.9
same,robust z score of cilia incidence,[3],-20.8 ± 3.1
CCOC(=O)c1cncn1[C@H](C)c1ccccc1 [Etomidate],robust z score of cell number,[1]; siRNA: siRpgrip1l,-23.5 ± 22
same,robust z score of cell number,[1]; siRNA: siScr,0.96 ± 2.1
same,robust z score of cilia incidence,[2],1.82 ± 3.1
same,robust z score of cilia incidence,[3],-123 ± 100
O=C(O)c1nn(Cc2ccc(Cl)cc2Cl)c2ccccc12 [Lonidamine],robust z score of cell number,[1]; siRNA: siRpgrip1l,-28.9 ± 35
same,robust z score of cell number,[1]; siRNA: siScr,-10.2 ± 0.32
same,robust z score of cilia incidence,[2],-7.7 ± 4.4
same,robust z score of cilia incidence,[3],-245 ± 190

# Retrieved one by one from the list above (three):
smiles,measurement,setting,value
COc1cc2c(cc1O)C(CCc1ccc(Cl)cc1)N(C)CC2 (stereo not drawn),robust z score of cilia incidence,[2],-19.7 ± 1.8
O=C(Cc1ccc(Cl)c(Cl)c1)N1CCCCC1CN1CCCC1 (stereo not drawn),robust z score of cilia incidence,[2],-2.99 ± 0.78
CCCOc1ccc2[nH]cc(C3=CCNCC3)c2n1,robust z score of cell number,[1]; siRNA: siRpgrip1l,-41.6 ± 40

# An excerpt of these results, with tabs:
smiles	measurement	setting	value
CCCN[C@@H]1CCc2c(OC)cccc2[C@@H]1C [(+)-AJ 76 hydrochloride]	robust z score of cilia incidence	[2]	-2.76 ± 0.27
O=C(Cc1ccc(Cl)c(Cl)c1)N1CCCCC1CN1CCCC1 (stereo not drawn)	robust z score of cell number	[1]; siRNA: siScr	-2.32 ± 1.8
OC1CCCCC1N1CCC(c2ccccc2)CC1 (racemic) [(±)-Vesamicol hydrochloride]	robust z score of cell number	[1]; siRNA: siRpgrip1l	-13.1 ± 8.8
same	robust z score of cilia incidence	[3]	-12.8 ± 5.2
CCCN1CCO[C@@H]2c3cc(O)ccc3OC[C@H]21	robust z score of cell number	[1]; siRNA: siRpgrip1l	-33.6 ± 4.9
